According to publication PMC5078655:
Results are given in words; binding and its absence hold for the method and conditions named. In cells and extracts the contact can be indirect. Some binding calls cover weakened binding; strength is not graded here.

Amino acid sequences for entries named in this document (tags omitted). Residues count along the entry.
UniProt Q15848, residues 19-244: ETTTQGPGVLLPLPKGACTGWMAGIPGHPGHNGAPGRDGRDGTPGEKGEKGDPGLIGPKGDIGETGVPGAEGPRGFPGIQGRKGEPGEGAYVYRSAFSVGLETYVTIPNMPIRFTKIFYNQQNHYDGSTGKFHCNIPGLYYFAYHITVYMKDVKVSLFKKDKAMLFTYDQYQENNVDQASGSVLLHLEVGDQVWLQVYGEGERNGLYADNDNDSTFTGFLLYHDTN
UniProt Q04206: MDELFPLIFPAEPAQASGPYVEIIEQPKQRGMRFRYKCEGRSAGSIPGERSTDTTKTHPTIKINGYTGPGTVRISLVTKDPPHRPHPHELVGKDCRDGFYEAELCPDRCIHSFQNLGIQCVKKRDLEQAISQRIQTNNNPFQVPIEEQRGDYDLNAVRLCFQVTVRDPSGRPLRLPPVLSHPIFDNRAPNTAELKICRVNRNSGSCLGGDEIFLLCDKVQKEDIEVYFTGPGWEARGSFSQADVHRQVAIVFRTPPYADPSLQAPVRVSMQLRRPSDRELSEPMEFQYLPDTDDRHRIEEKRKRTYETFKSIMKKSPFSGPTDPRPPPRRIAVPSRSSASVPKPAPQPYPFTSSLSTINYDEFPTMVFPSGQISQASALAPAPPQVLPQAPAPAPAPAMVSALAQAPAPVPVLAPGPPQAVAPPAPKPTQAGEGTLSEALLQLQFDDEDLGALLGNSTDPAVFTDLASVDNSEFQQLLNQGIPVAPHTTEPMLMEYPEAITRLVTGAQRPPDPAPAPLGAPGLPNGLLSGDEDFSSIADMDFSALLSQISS

Biological target: adiponectin (human (endogenous in human cardiomyocytes)) (UniProt Q15848)
Assay: co-IP; 300 μg nuclear protein from human cardiomyocytes (with or without ET-1 for 1 h); immunoprecipitated with antibodies against adiponectin or control mouse IgG at 4°C overnight, protein A/G-Sepharose beads, washed three times with IP buffer; immunoblotted for p65, PPARα and adiponectin

binding: binds
Substance: p65 (from UniProt Q04206 1-551)
